Test results as given in PubChem BioAssay AID1794845 (National Center for Advancing Translational Sciences (NCATS), 2023).
In all, about 6,900 compounds went through this assay and fewer than 10 were called active. Calls come from the whole dose curve; as a rule, active = well fitted curve in the direction sought with a large enough effect; inconclusive = small, poorly fitted or top-dose-only effect, or another doubt; inactive = no such curve, though single readings can be large or run the other way. The list shows a part of the results.

Chains of the proteins cited; added tags and fusions are not shown. Lines headed by an entry give the natural chain unless they say otherwise; changes in a name come on top.
UniProt C7C422: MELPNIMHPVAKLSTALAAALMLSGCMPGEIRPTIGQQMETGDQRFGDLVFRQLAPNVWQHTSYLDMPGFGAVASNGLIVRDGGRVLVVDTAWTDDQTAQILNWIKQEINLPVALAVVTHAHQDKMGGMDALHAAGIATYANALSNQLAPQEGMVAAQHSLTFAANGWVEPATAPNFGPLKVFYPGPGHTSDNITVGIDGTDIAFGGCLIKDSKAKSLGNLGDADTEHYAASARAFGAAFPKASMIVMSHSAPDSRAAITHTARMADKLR

These compounds were tested against Metallo-beta-lactamase type 2 (Klebsiella pneumoniae) (UniProt C7C422) (assay: qHTS to identify inhibitors of the New Delhi Metallo-beta-lactamase (NDM): primary screen against the NCATS Gemini Collection). Conditions: NDM-1 enzyme, meropenem hydrolysis, absorbance 300 nm; at 38.4 µM (top of the series) unless noted.
Method in brief: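 NDM-1 at 2 nM final in 50 mM HEPES pH 7.0, 1 uM ZnSO4, 0.01% Tween20, preincubated >30 min with compound. Meropenem 50 uM final added; absorbance at 300 nm after 30 min.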
Note: % of control where 0% means no effect.

Activity % (negative = inhibition), inactive:
O=[S+]([O-])(c1cccc(C(F)(F)F)c1)N1CCc2nc(-c3ccccc3)nc(-c3ccc(Cl)cc3)c2C1 3.17%
CCC(=O)N1CCc2c(C(=O)NCC(C)C)cccc21 0.333%
CCN(CC1CCCN(CCc2cccc(OC)c2)C1)C(=O)CSC (stereo not drawn) 2.85%
O=C(CCn1cccn1)NC1CC(=O)N(Cc2cccc3ccccc23)C1 (stereo not drawn) 11.4%
Cc1cc(C)c(CNC(=O)c2nc(-c3cccnc3)cc3[nH]ccc23)c(=O)[nH]1 18.8% [at 57.5 µM]
O=C1NCCC[C@@H]1NC(=O)[C@H]1CN(C(=O)c2cccc(F)c2)CCN1C(=O)c1cccs1 1.88%
CCc1noc([C@@H]2CC(F)(F)CN2C(=O)c2ccn(CC)n2)n1 10.1%
CCCNC(=O)N(C1CCOCC1)C1CCN(C(=O)Cc2cccnc2)CC1 -2.81%
O=C(Cc1cccc(Cl)c1)NCCNC(=O)c1cccc(-c2ccsc2)c1 77.3%
O=C(c1ccc(F)cc1)N1CCCC(C(=O)N2CCCC2c2nc3ccncc3[nH]2)C1 (stereo not drawn) 0.752%
Cc1nn(C)c(C)c1CNC(=O)C1CC(=O)N(c2n[nH]c3cccc(F)c23)C1 (stereo not drawn) 6.28%
CC(=O)N1CCn2c(nn(-c3ccncc3)c2=O)C1 0.577% [at 57.5 µM]
COc1ccc(OC)c(S(=O)(=O)N2CCCOCCNC(=O)[C@@H]3CCCC[C@@H]32)c1 42.4%
CC(C)[C@@H]1CN(C(=O)CCn2ccc(=O)[nH]c2=O)C[C@H]1NC(=O)N(C)C -0.847%
OC1(c2csc(CN3CCOCC3)n2)CCN(C2CCCC2)CC1 -0.884% [at 57.5 µM]
CN(C)c1nccnc1OC1CCN(S(=O)(=O)Cc2ccccc2)C1 (stereo not drawn) 18%
OCC1(Cc2ccccc2F)CCCN(c2nnnn2-c2ccccc2)C1 (stereo not drawn) 0.361%
CCn1c(=O)c2c(cc(C)n2C)n(CC(=O)Nc2ccccc2C)c1=O 31.4%
O=C(NC1CCOCC1)c1ccc(OC2CCN(Cc3ccccn3)CC2)cc1 -1.94%
COCCCNC(=O)CN1CCCc2nc(-c3ccncc3)ncc2C1=O 22.5%
CC(C)(C)CC(=O)N1CC[C@H](NC(=O)NC2CCCCC2)[C@H]1C(=O)N[C@H](Cc1c[nH]c2ccccc12)C(N)=O -1.06%
COc1cc(Cl)c(CN2CCC[C@H]2C(=O)O)cc1OC 18.6%
COCCNC(=O)C[C@@H]1O[C@H](CNS(=O)(=O)c2ccc(C)cc2)[C@@H](O)[C@H]1O 2.4% [at 57.5 µM]
Cn1ccnc1-c1ccc(N2CCCC(CO)(CCOc3ccccc3)C2)nn1 (stereo not drawn) 17.9%
O=C(N[C@H](c1ccccc1)C1CC(O)C1)c1ccc(-n2cccn2)cc1 (stereo partly drawn) 3.77%
COc1cccc(CN2C(=O)CCCCC2C(=O)NC2CCS(=O)(=O)C2)c1 (stereo not drawn) 3.88%
Cn1cc(-c2cc(=O)c3ccnc(NCc4ccc(F)cc4)c3o2)cn1 19.9% [at 57.5 µM]
O=C(CCc1cc2n(n1)CCCNC2)N1CCCC(c2nnc3ccccn23)C1 (stereo not drawn) 2.81%
CCCN1C(=O)Cc2cc(C(=O)N3CCN(c4ccccc4Cl)CC3)ccc21 -4.94%
Cc1ccsc1-c1[nH]nc2ncc(-c3ccnn3C)nc12 1.37% [at 77.1 µM]
CN(C)C(=O)N(C)Cc1ccc(F)cc1 -10% [at 77.1 µM]
COc1ccc(-c2noc(C(=O)O)c2[C@@H](C)NC(=O)C2CCCCC2)cc1 2.52% [at 57.5 µM]
COCC(=O)N[C@@H]1CN(C(=O)Cc2cccc(OC)c2)CC[C@@H]1c1nc(C)no1 -1.89%
COc1ccc(CNC(=O)c2cnc3c(c2)N(C(=O)CCc2ccccc2)CCC3)cc1OC 4.85%
COc1ccc([C@H](C)NC(=O)c2c(C)noc2-c2cccs2)cc1 16.5%
CCCNC(=O)N1CCC(N2CC(OCC3CC3)C23CCCCC3)CC1 (stereo not drawn) -2.61%
Cc1cc(=O)n(CC(=O)NC(C)CCc2ccccc2)c(N2CCOCC2)n1 (stereo not drawn) 13.5%
Cc1nc(Cn2ccnc2-c2cn(C3CCNCC3)nn2)cs1 7%
CCc1nc2c(c(-c3ccc(Cl)cc3)n1)CN(Cc1ccccn1)CC2 102%
NC(=O)CCNC(=O)C1=C[C@@H](NC(=O)c2cccs2)[C@@H](O)[C@H](O)C1 13.3% [at 57.5 µM]
O=C1CCC2(C(=O)NCCN3CCOCC3)CCCC=C2N1C1CCCC1 (stereo not drawn) -0.452%
CCn1c(CO)nnc1C1CC(NC(=O)Cn2ncc3ccccc32)C1 (stereo not drawn) 10.7%
Cn1ccnc1CN1CC2(CCN(C(=O)C3CC3)CC2)CC1C(=O)O (stereo not drawn) 2.78%
Cc1cc(C)n(-c2ccc(C(=O)N[C@H]3C[C@H]4C(=O)NCC(=O)N4C3)cc2)n1 0.0135%
CSCCC(=O)N1CCCC1C(=O)Nc1cccc(-n2cccn2)c1 (stereo not drawn) 11.2%
CCN(CCNC(=O)C1CCCCC(=O)N1C)Cc1ccccc1 (stereo not drawn) -8.86%
CCNC(=O)NCCc1noc(-c2ccncc2)n1 -11%
COC1CCC12CCNCC2 (stereo not drawn) 12%
COc1cccc(C(C)N(C)C(=O)c2cc(Cn3ccnc3C(C)C)[nH]n2)c1 (stereo not drawn) 1.29%
CN(Cc1nc2ccc(F)cc2[nH]1)C(=O)c1cn(CCN)nn1 -1.18%
CC(=O)N1CCCC(c2nn(-c3ccccn3)c(=O)[nH]2)C1 (stereo not drawn) 8.77% [at 57.5 µM]
CC(=O)N1CCCC1c1nc(C2CN(S(=O)(=O)c3cccc(C)c3)C2)no1 (stereo not drawn) -2.91%
O=S(=O)(NCCn1cc(-c2cncnc2)nn1)c1ccc(Cl)cc1 13%
CC(O)C(=O)N1CCc2[nH]nc(C(c3ccccc3)c3ccccc3)c2C1 (stereo not drawn) 4.09%
CN(Cc1cccn1C)C(=O)c1ccccc1 0.393% [at 57.5 µM]
CN(C)C[C@@H]1CN(c2ncccn2)C[C@H]1NC(=O)COc1ccc(Cl)cc1 -6.11%
O=C(Cn1cccn1)N1CC[C@@H]2[C@@H](CCC(=O)N2CCc2cnc[nH]2)C1 9.25%
COc1cccc(NC(=O)O[C@@H]2CO[C@H]3[C@@H]2OC[C@@H]3Nc2nccc(-c3ccccc3)n2)c1 7.31%
Cc1ccc(CN2CCC(C3CCN(S(C)(=O)=O)CC3)C2)o1 (stereo not drawn) 3.51%
Cc1[nH]nc(C(=O)N[C@@H]2COCC[C@@H]2OCc2ccccc2)c1Cl 85.5%
Cn1ncc(N2CCCC(CC(=O)O)C2)cc1=O (stereo not drawn) 56.8%
O=C(NC1CCCN(CCn2nc3n(c2=O)CCCC3)C1)c1ccccc1Cl (stereo not drawn) -2.69%
O=C(c1cn[nH]c1)N1CCC(c2nc(CCOCC3CC3)no2)C1 (stereo not drawn) 2%
CCC(C(=O)N1CCCn2nc(C(=O)Nc3ccccc3)cc2C1)n1cccn1 (stereo not drawn) 10.2%
CC(C)N1CC(C(=O)NCCc2ccc(Cl)cc2)NC1=O (stereo not drawn) 9.73% [at 57.5 µM]
Cc1cnn(CCC(=O)N2CCCn3ccnc3C2c2cnn(C)c2)c1 (stereo not drawn) 0.21%
O=C(CCSCc1ccccc1)N1C[C@@H](CN2CCOCC2)[C@@H](CO)C1 -3.89%
CC(=O)N1CCN(Cc2nnc(C(=O)N3CCC[C@@H]3c3cccc(F)c3)n2-c2ccccc2)CC1 2.15%
Cc1noc(C)c1CN1CCN(C(=O)C2CCCN2)CC1 (stereo not drawn) 66.7%
COc1ccc(O)cc1CN1CCC(Cc2ccc(C(=O)O)cc2)C1 (stereo not drawn) 3.25%
CCS(=O)(=O)N[C@@H]1CN(Cc2ccccc2)C[C@H]1CN(C)C 4.86%
O=C(Cc1cccn1-c1ccc(F)cc1)N1CCCCC1 1.33%
O=C(NCCc1ccncc1)C1CN(C(=O)C2CCCCC2)CC12CCOCC2 (stereo not drawn) -8.79%
O=C1NCCCc2[nH]c(-c3cnn(-c4ccc(F)cc4)c3)nc21 23%
Cc1cccc(C(=O)N2CC(N(C)Cc3cccnc3)C2)c1 3.58%
CC(=O)N1CCC([C@@H]2CN(Cc3ccc(C)s3)C[C@H]2CO)CC1 -11.6%
Cc1cnc(CN2CC3(CCCN(C(=O)c4ccc(C)s4)C3)CCC2=O)cn1 (stereo not drawn) -0.0078%
CN1C(=O)CCCCC1C(=O)NCC1CCCCC1 (stereo not drawn) 48.3%
COc1ccc(-c2nc(C)nc3c2CCC3)c2ccc(C)nc12 6.9%
COc1ccc(NC(=O)N[C@H]2CO[C@H]3[C@@H]2OC[C@@H]3n2nnnc2-c2ccccc2)cc1 -10.4% [at 57.5 µM]
COCCNC(=O)C1CCC(=O)N1C1CCNCC1 (stereo not drawn) -1.62%
O=C(CCc1nc2ccccc2s1)N1CCC(c2noc(C3CC3)n2)C1 (stereo not drawn) 9.26%
Cc1ccc(-c2cc(O)c3c(c2)CNCCO3)cc1 0.339%
COCC(=O)NC1CCC12CCN(Cc1ccc(C)o1)CC2 (stereo not drawn) 1.04%
COc1ccccc1OCc1cc(C(=O)N2CCCCCCCC2)n[nH]1 3.12%
CCc1noc(-c2cn(C3CCCN(C(=O)c4ccc(C(C)(C)C)cc4)C3)nn2)n1 (stereo not drawn) 0.239%
Cc1cnc(CC2CCN(S(=O)(=O)c3cn(C)cn3)C2)n1Cc1ccccc1 (stereo not drawn) -7.95%
NC(=O)COc1cccc(CN2CCN(c3ccc(F)cc3F)CC2)c1 3.18%

Compounds listed so far that have a COOH group:
Activity % (negative = inhibition), inactive:
COc1cc(Cl)c(CN2CCC[C@H]2C(=O)O)cc1OC 18.6%
COc1ccc(-c2noc(C(=O)O)c2[C@@H](C)NC(=O)C2CCCCC2)cc1 2.52% [at 57.5 µM]
Cn1ccnc1CN1CC2(CCN(C(=O)C3CC3)CC2)CC1C(=O)O (stereo not drawn) 2.78%
Cn1ncc(N2CCCC(CC(=O)O)C2)cc1=O (stereo not drawn) 56.8%
COc1ccc(O)cc1CN1CCC(Cc2ccc(C(=O)O)cc2)C1 (stereo not drawn) 3.25%
